The record followed here is patent US6440446B1, “Agent for anti-osteoporosis” (Kabushiki Kaisha Hayashibara Seibutsu Kagaku Kenkyujo, priority 1998, dated 2002).

Series [1] relates to ovary-extracted mice (oophorectomized osteoporosis). Briefly: Animal experiment: intravenous injection to ovary-extracted mice on low-calcium feed, dry weight of femurs and tibia microscopy. In kind it is in vivo, female ddY mice. Particulars: tail vein, 5 ml/kg body weight/shot, once daily, five times a week. The protocol:
An injection containing 10 w/w % trehalose, obtained by the later described Example 7, was diluted with a phosphate buffered saline, which had been filtered with a membrane filter having a pore size of 0.22 μm (hereinafter abbreviated as “PBS”) into a 0.1 w/w % or 1 w/w % trehalose solution. These solutions and the above injection were used for test samples. According to what is done conventionally, female ddY mice, 4-week-old, which had been grouped into 34 heads/group based on their body weight, were anesthetized with sodium pentobarbital, and extracted their ovaries. From the next day, the mice were injected from their tail veins with any one of the test samples at a dose of 5 ml/kg body weight/shot, once every day and five times a week. […] The feed used was a low-calcium feed for ease of making the difference of the bone content.
In parallel, the following control groups were provided and treated similarly as the group with trehalose: As control 1, a group in which mice were administered with the same amount of PBS as the test samples in place of them; and as control 2, a group in which mice, that were received with a laparotomy pseudo-operation and were not extracted their ovaries, were administered with the same amount of PBS as the test samples in place of them. Some of the mice administered with trehalose using one w/w t trehalose solution, and the mice in controls 1 and 2 as non-trehalose administration groups were extracted their tibias, followed by observing the tibias microscopically. The specimens for microscopic observation were prepared in the usual manner by immobilizing the extracted tibias with formalin solution, washed with water, delimed, split along with the long axis, and treated with protease K to remove bone marrow cells. The specimens of tibias were observed by a relatively-low vacuum electron-microscope under 24 magnifications, and photographed. The data are respectively in FIGS. 4 to 6. In these figures, white parts are the trabecula of cancellous bone. […]

Series [2] has the same test system. Briefly: Animal experiment: oral administration to ovary-extracted mice on low-calcium feed, dry weight of femurs and tibia microscopy. It counts as in vivo, female ddY mice. Conditions: once daily, five shots a week. An excerpt:
According to what is done conventionally, female ddY mice, 4-week-old, which had been grouped into 34 heads/group based on their body weight, were anesthetized with sodium pentobarbital, and extracted their ovaries. From the next day, the mice were orally administered with “TREHAOSE®”, a crystalline trehalose powder containing at least 98% trehalose, d.s.b., commercialized by Hayashibara Shoji, Inc, Okayama, Japan, which had been dissolved in distilled water, at a dose of 0.01, 0.1 or 1 g/kg body weight per shot once every day, five shots in a week. […] The feed used was a low-calcium feed for ease of making the difference of the bone content.
In parallel, the following control groups were provided and treated similarly as the group with trehalose: As control 1, a group in which mice were administered with the same amount of distilled water as the aqueous trehalose solution in place of the trehalose solution; as control 2, a group in which mice were administered with estradiol, as a therapeutic agent for osteoporosis, dissolved in the same amount of distilled water as the aqueous trehalose solution in place of the trehalose solution, at a dose of one mg/kg body weight/shot, two times a week; and as control 3, a group in which mice, which were received with a laparotomy pseudo-operation and not extracted their ovaries, were administered with the same amount of distilled water as the aqueous trehalose solution in place of the trehalose solution. Some of the mice administered with trehalose at a dose of 0.1 g/kg body weight/shot, and the mice in controls 1 and 3 as groups with no trehalose were extracted their tibias, followed by observing the tibias microscopically. The specimens for microscopic observation were prepared in the usual manner by immobilizing the extracted tibias with formalin solution, washed with water, delimed, split along with the long axis, and treated with protease K to remove bone marrow cells. The specimens of tibias were observed by a relatively-low vacuum electron-microscope under 24 magnifications, and photographed. […]

On to `OC[C@H]1O[C@H](O[C@H]2O[C@H](CO)[C@@H](O)[C@H](O)[C@H]2O)[C@H](O)[C@@H](O)[C@@H]1O` [Trehalose, trehalose], for which the “Body weight when tibia was enucleated” value in series [1] (0.1 w/w % trehalose solution) worked out at 31.9 ± 2.0 g; in series [1] (1 w/w % trehalose solution) it was 32.0 ± 2.2 g; in series [1] (10 w/w % trehalose injection) it was 32.3 ± 2.1 g; in series [2] (oral 0.01 g/kg body weight/shot) it was 31.7 ± 2.2 g; in series [2] (oral 0.1 g/kg body weight/shot), 31.3 ± 2.4 g; in series [2] (oral 1 g/kg body weight/shot) it was 32.0 ± 2.1 g.
